From patent publication US7144859 (dated 2006)

Experiment: general procedure: Fmoc solid-phase peptide synthesis; Rink amide MBHA; HBTU (printed HBUT) / diisopropylethyl amine
Conditions: whole synthesis, scale 0.087 mmole

For “H-Cpa-cyclo(D-Cys-Pal-D-Trp-Lys-β-Ala-Cys)-Nal-NH2”, the isolated mass was 26 mg.
